The record followed here is patent US20140155332A1.

The target of assay [1] is Mcl-1 (human), Q07820. Briefly: immunoprecipitation with antibodies against Mcl-1, Bcl-XL or rabbit IgG from BPLER or HMLER lysates, immunoblot (FIG. 5F). To be noted: remark: other sources report otherwise. (Immunoblotting shows a protein as a band on a membrane.)
The target of assay [2] is Mcl-1 (human), Q07820. To be noted: remark: other sources report otherwise.

Like-named read-outs stand apart in the source and are kept apart here. These are yes or no findings as the source states them, for the method shown. For some assays here: Binding seen in cells or lysates may run through a third protein. Some binding calls cover weakened binding; strength is not graded here.

B1: Noxa, Q13794 1-54 (protein, human, UniProt Q13794 1-54, looked up)
chain: MPGKKARKNAQPSPARAPAELEVECATQLRRFGDKLNFRQKLLNLISKLFCSGT
B1: the binding entry is recorded as “binds” in the assay with Mcl-1 (human), Q07820 [1] and “binds” with Mcl-1 (human), Q07820 [2].
